Experimental data reported in patent US9441237B2, “Auxin receptors” (THE GOVERNORS OF THE UNIVERSITY OF ALBERTA, priority 2010, dated 2016).

Test: Endogenous IAA and 4-Cl-IAA content in developing pea seed tissues (HPLC, GC-MS-SIM isotope dilution)
Set-up: species or system Pisum sativum

SMILES | IAA and 4-Cl-IAA content (cotyledon, 18 DAA) | IAA and 4-Cl-IAA content (embryo axis, 18 DAA) | IAA and 4-Cl-IAA content (embryo, 10 DAA) | IAA and 4-Cl-IAA content (embryo, 12 DAA) | IAA and 4-Cl-IAA content (embryo, 14 DAA) | IAA and 4-Cl-IAA content (embryo, 16 DAA) | IAA and 4-Cl-IAA content (embryo, 18 DAA) | IAA and 4-Cl-IAA content (liquid endosperm, 10 DAA) | IAA and 4-Cl-IAA content (liquid endosperm, 12 DAA) | IAA and 4-Cl-IAA content (seed coat, 10 DAA) | IAA and 4-Cl-IAA content (seed coat, 12 DAA) | IAA and 4-Cl-IAA content (seed coat, 14 DAA) | IAA and 4-Cl-IAA content (seed coat, 16 DAA) | IAA and 4-Cl-IAA content (seed coat, 18 DAA)
O=C(O)Cc1c[nH]c2cccc(Cl)c12 [4-Cl-IAA, 4-chloroindole-3-acetic acid] | 84.18 ± 6.44 ng gFw^−1 | 265.03 ng gFw^−1 | 141.68 ng gFw^−1 | 102.55 ng gFw^−1 | 661.68 ± 261.71 ng gFw^−1 | 653.97 ng gFw^−1 | 137.7 ± 49.35 ng gFw^−1 | 148.67 ± 33.38 ng/mL | 238.95 ng/mL | 840.99 ng gFw^−1 | 486.27 ng gFw^−1 | 128.41 ± 21.25 ng gFw^−1 | 295.22 ng gFw^−1 | 196.08 ng gFw^−1
O=C(O)Cc1c[nH]c2ccccc12 [IAA, indole-3-acetic acid] | 8.46 ± 1.06 ng gFw^−1 | 71.20 ng gFw^−1 | 86.22 ng gFw^−1 | 28.55 ± 2.42 ng gFw^−1 | 19.80 ± 1.83 ng gFw^−1 | 36.35 ± 8.46 ng gFw^−1 | 14.56 ± 2.36 ng gFw^−1 | 89.35 ± 19.34 ng/mL | 244.04 ± 11.04 ng/mL | 54.95 ± 10.80 ng gFw^−1 | 20.05 ± 1.34 ng gFw^−1 | 8.47 ± 1.15 ng gFw^−1 | 10.05 ± 1.96 ng gFw^−1 | 5.71 ± 1.04 ng gFw^−1
